Results taken from paper PMC5441899.
These are yes or no findings as the source states them, for the method shown. In cells and extracts the contact can be indirect. Some binding calls cover weakened binding; strength is not graded here. Where a sequence is shown, tags or fusion partners need not be part of it.

T1: bHLH115-cYFP (full-length bHLH115 fused with the C-terminal of YFP) (Arabidopsis thaliana) (UniProt Q9C682)
T1 sequence: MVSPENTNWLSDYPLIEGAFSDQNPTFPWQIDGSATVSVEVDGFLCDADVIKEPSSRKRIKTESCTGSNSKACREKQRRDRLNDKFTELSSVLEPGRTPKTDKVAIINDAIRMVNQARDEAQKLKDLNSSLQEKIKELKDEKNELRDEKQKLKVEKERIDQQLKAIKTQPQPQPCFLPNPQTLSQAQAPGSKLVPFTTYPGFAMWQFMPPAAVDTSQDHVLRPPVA

B1: bHLH115-nYFP (full-length bHLH115 fused with the N-terminal of YFP) (protein, UniProt Q9C682 1-226)
chain: T1 sequence
B2: bHLH34-nYFP (full-length bHLH34 fused with the N-terminal of YFP) (protein, UniProt Q9LTC7 1-320)
chain: MYPSIEDDDDLLAALCFDQSNGVEDPYGYMQTNEDNIFQDFGSCGVNLMQPQQEQFDSFNGNLEQVCSSFRGGNNGVVYSSSIGSAQLDLAASFSGVLQQETHQVCGFRGQNDDSAVPHLQQQQGQVFSGVVEINSSSSVGAVKEEFEEECSGKRRRTGSCSKPGTKACREKLRREKLNDKFMDLSSVLEPGRTPKTDKSAILDDAIRVVNQLRGEAHELQETNQKLLEEIKSLKADKNELREEKLVLKAEKEKMEQQLKSMVVPSPGFMPSQHPAAFHSHKMAVAYPYGYYPPNMPMWSPLPPADRDTSRDLKNLPPVA
B3: BTS-nYFP (BRUTUS fused with the N-terminal of YFP) (protein, UniProt Q8LPQ5 1-1254)
chain: MATPLPDFETARGGGAVASSSTTVLPSSVSSSSSSSRPLPVANSFSDDAEEISPILIFLFFHKAVCSELEALHRLALEFATGHHVDLRLLRERYRFLRSIYKHHCNAEDEVIFSALDIRVKNVAQTYSLEHKGESNLFDHLFELLNSATETDESYRRELARSTGALQTSVSQHLAKEQKQVFPLLIEKFKYEEQAYIVWRFLCSIPVNMLAVFLPWISSSISVDESKEMQTCLKKIVPGEKLLQQVIFTWLGGKSNTVASCRIEDSMFQCCLDSSSSMLPCKASREQCACEGSKIGKRKYPELTNFGSSDTLHPVDEIKLWHKSINKEMKEIADEARKIQLSGDFSDLSAFDERLQYIAEVCIFHSLAEDKIIFPAVDGEFSFSEEHDEEENQFNEFRCLIENIKSAGASSTSAAEFYTKLCSHADQIMETIQRHFHNEEIQVLPLARKNFSFKRQQELLYQSLCIMPLRLIERVLPWLTASLTEDEAKNFLKNLQAGAPKSDVALVTLFSGWACKGRKAGECLSPNGNGLCPVKTLSNIKEVNLQSCNACASVPCTSRSTKSCCQHQDKRPAKRTAVLSCEKKTTPHSTEVANGCKPSGNGRSCCVPDLGVNNNCLELGSLPAAKAMRSSSLNSAAPALNSSLFIWEMDSNSFGTGHAERPVATIFKFHKAISKDLEFLDVESGKLIDCDGTFIRQFIGRFHLLWGFYKAHSNAEDDILFPALESKETLHNVSHSYTLDHKQEEKLFGDIYSVLTELSILHEKLQSDSMMEDIAQTDTVRTDIDNGDCNKKYNELATKLQGMCKSIKITLDQHIFLEELELWPLFDKHFSIQEQDKIVGRIIGTTGAEVLQSMLPWVTSALSEDEQNRMMDTWKQATKNTMFDEWLNECWKGSPDSSSTETSKPSPQKDNDHQEILDQSGELFKPGWKDIFRMNQNELEAEIRKVYQDSTLDPRRKDYLVQNWRTSRWIAAQQKLPKEAETAVNGDVELGCSPSFRDPEKQIYGCEHYKRNCKLRAACCDQLFTCRFCHDKVSDHSMDRKLVTEMLCMRCLKVQPVGPICTTPSCDGFPMAKHYCSICKLFDDERAVYHCPFCNLCRVGEGLGIDFFHCMTCNCCLGMKLVNHKCLEKSLETNCPICCEFLFTSSEAVRALPCGHYMHSACFQAYTCSHYTCPICGKSLGDMAVYFGMLDALLAAEELPEEYKNRCQDILCNDCERKGTTRFHWLYHKCGSCGSYNTRVIKSETIPPDCSTSS
B4: bHLH105-nYFP (full-length bHLH105 fused with the N-terminal of YFP) (protein, UniProt Q9FH37 1-234)
chain: MVSPENANWICDLIDADYGSFTIQGPGFSWPVQQPIGVSSNSSAGVDGSAGNSEASKEPGSKKRGRCESSSATSSKACREKQRRDRLNDKFMELGAILEPGNPPKTDKAAILVDAVRMVTQLRGEAQKLKDSNSSLQDKIKELKTEKNELRDEKQRLKTEKEKLEQQLKAMNAPQPSFFPAPPMMPTAFASAQGQAPGNKMVPIISYPGVAMWQFMPPASVDTSQDHVLRPPVA
B5: bHLH104-nYFP (full-length bHLH104 fused with the N-terminal of YFP) (protein, UniProt Q8L467 1-283)
chain: MYPSLDDDFVSDLFCFDQSNGAELDDYTQFGVNLQTDQEDTFPDFVSYGVNLQQEPDEVFSIGASQLDLSSYNGVLSLEPEQVGQQDCEVVQEEEVEINSGSSGGAVKEEQEHLDDDCSRKRARTGSCSRGGGTKACRERLRREKLNERFMDLSSVLEPGRTPKTDKPAILDDAIRILNQLRDEALKLEETNQKLLEEIKSLKAEKNELREEKLVLKADKEKTEQQLKSMTAPSSGFIPHIPAAFNHNKMAVYPSYGYMPMWHYMPQSVRDTSRDQELRPPAA

biological target: T1, bHLH115-cYFP (full-length bHLH115 fused with the C-terminal of YFP) (Arabidopsis thaliana); assay: split reporter; BiFC: cYFP and nYFP fusions transiently co-expressed in N. benthamiana leaf cells by Agrobacterium infiltration; YFP and DAPI fluorescence observed by confocal microscopy

| binding | Binder |
| --- | --- |
| binds | B1 |
| binds | B2 |
| binds | B3 |
| binds | B4 |
| binds | B5 |
